Laboratory results as given in paper PMC11574021, “CEP192 localises mitotic Aurora-A activity by priming its interaction with TPX2” (The EMBO Journal, 2024).

System: Aurora-A 122-403 C290A C393A (D274N)
Test: ITC, CEP192 constructs with unphosphorylated Aurora-A kinase domain
Format: binding, human
Conditions: for molar ratio: ITC fit, Aurora-A CAKD / M3KD

Molecule	interaction with Aurora-A CAKD (ITC) (ITC, 25 °C, in words)	molar ratio
CEP192 468-533 F490D/F508D/I518D: CEP192 468-533 variant replacing hydrophobic residues recognising two regions of N-lobe (protein, left off: His6, N-terminal, cleaved | SUMO, N-terminal, cleaved, CEP192 468-533 variant replacing hydrophobic residues recognising two regions of N-lobe) PQSVVYQNEEGRWVTDLAYYTSDNSKQNLNVSLSDEMNEDDRSGSEAFDLDAQDEEEFNKEHQFIQ	completely knocked out the interaction with Aurora-A^CAKD	
CEP192 468-533: recombinant human CEP192 aa 468–533, minimal binding region (protein, left off: His6, N-terminal, cleaved | SUMO, N-terminal, cleaved) PQSVVYQNEEGRWVTDLAYYTSFNSKQNLNVSLSDEMNEDFRSGSEAFDLIAQDEEEFNKEHQFIQ		0.85
CEP192 468-533 Y487A/F490A: CEP192 468-533 mutant, two F-pocket residues replaced with alanine (protein, left off: His6, N-terminal, cleaved | SUMO, N-terminal, cleaved, CEP192 468-533 mutant, two F-pocket residues replaced with alanine) PQSVVYQNEEGRWVTDLAYATSANSKQNLNVSLSDEMNEDFRSGSEAFDLIAQDEEEFNKEHQFIQ		0.84
